Test results from US8753875B2, “Compositions and means for diagnosing microbial infections” (priority 2007, dated 2014).
Some of these results come from one statement about several compounds together.

System: Escherichia coli ATCC 25922
Assay: Reduction in growth/numbers of colonies on medium with added antibiotic
Type: cell-based
Details: 10^5 CFU/ml suspension, 18-24 hours at 37° C.

Which “reduction in the growth of/numbers of colonies formed” value (from here on “reduction in the growth of/numbers”) (16 mg/l mecilinam) does the source give for `CC1(C)S[C@@H]2[C@H](/N=C/N3CCCCCC3)C(=O)N2[C@H]1C(=O)O` [Mecillinam, 6-Amidinopenicillanic acid derivatives; amdinocillin: 46-[[(hexahydro-1H-azepin-1-yl)methylene]amino]-3,3-dimethyl-7-oxo-, (2S,5R,6R)--Thia-1-azabicyclo[3.2.0]heptane-2-carboxylic acid] here?
The value was “at least 5 log CFU/ml”.

For `CC1(C)SC2C(NC(=O)C(N)c3ccccc3)C(=O)N2C1C(=O)O` (stereo not drawn) [Ampicillin, 7-(2-amino-2-phenyl-acetyl)amino-3,3-dimethyl-6-oxo-2-thia-5-azabicyclo[3.2.0]heptane-4-carboxylic acid], which “reduction in the growth of/numbers” value (16 mg/l ampicillin) is on record?
The value was “at least 5 logCFU/ml”.

For `Cc1nnc(NS(=O)(=O)c2ccc(N)cc2)s1` [Sulfamethizole], which “reduction in the growth of/numbers” value (700 mg/l sulphamethizole) is on record?
The value was “at least 3 log CFU/ml”.
